{"sequences": {"note": "Protein sequences, listed by entry. Tags and fused reporters are not part of them.", "UniProt P30658": "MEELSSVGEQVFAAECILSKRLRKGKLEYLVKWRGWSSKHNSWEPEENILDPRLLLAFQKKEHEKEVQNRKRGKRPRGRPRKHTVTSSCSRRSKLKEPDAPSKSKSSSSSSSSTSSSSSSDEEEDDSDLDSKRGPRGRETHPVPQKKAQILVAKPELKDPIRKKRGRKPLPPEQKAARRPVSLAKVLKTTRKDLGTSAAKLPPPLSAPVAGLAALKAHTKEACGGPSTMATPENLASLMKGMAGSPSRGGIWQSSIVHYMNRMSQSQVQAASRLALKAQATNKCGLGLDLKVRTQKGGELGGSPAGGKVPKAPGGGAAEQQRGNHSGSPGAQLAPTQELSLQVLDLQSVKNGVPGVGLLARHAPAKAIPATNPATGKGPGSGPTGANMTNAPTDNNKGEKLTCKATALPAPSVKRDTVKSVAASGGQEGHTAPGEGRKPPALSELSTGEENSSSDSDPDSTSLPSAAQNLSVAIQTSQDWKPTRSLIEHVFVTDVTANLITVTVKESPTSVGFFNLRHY", "UniProt Q8VDS3": "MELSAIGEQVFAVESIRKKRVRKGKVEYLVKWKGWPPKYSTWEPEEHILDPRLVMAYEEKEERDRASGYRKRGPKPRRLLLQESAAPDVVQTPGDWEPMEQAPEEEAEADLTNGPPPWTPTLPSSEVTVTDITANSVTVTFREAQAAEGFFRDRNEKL", "UniProt Q9CQJ4": "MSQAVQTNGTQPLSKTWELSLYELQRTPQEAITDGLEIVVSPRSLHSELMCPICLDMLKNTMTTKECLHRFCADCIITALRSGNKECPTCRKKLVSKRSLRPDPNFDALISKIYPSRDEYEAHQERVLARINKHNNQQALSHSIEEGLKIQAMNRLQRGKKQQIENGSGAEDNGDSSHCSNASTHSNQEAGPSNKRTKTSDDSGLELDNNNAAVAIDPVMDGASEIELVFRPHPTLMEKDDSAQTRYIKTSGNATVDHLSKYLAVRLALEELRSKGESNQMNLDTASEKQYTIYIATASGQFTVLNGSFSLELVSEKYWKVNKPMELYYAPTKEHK"}, "source": "paper doi:10.1101/467316", "molecules": {"B1": {"name": "PHC1 (endogenous, 3T3 fibroblasts) (protein, UniProt Q64028 1-1010)", "chain": "METESEQNSSSTNGSSSSGASSRPQIAQMSLYERQAVQALQALQRQPNAAQYFHQFMLQQQLSNAQLHSLAAVQQATIAASRQASSPNSSTAQQQTATTQASMNLATTSAAQLISRSQSVSSPSATTLTQSVLLGNTTSPPLNQSQAQMYLRPQLGNLLQVNRTLGRNVPLASQLILMPNGAVAAVQQEVPPAQSPGVHADADQVQNLAVRNQQASAQGPQMPGSTQKAIPPGASPVSGLSQTSSQALAVAQASSGASGQSLNLSQAGGGSGNSLPGSMGPGGGGQAPGGLGQLPSSGLTGGSCPRKGTGVVQPLPAAQTVTVSQGSQTEAESAAAKKAEADGSGQQSVGMNLTRTATPAPSQTLISSATYTQIQPHSLIQQQQQIHLQQKQVVIQQQIAIHHQQQFQHRQSQLLHTATHLQLAQQQQQQQQQQQQQQQQQQQQQQGTTLTAPQPPQVPPTQQVPPSQSQQQAQTLVVQPMLQSSPLTLPPEPTSKPPIPIQSKPPVAPIKPPQLGAAKMSATQQPPPHIPVQVVGTRQPGSAQAQALGLAQLAAAVPTPRGITGAVQPGQAHLASSPPSSQAAPGALQECPPALAAGMTLAPVQGTAHVVKGGPTASSPVVAQVPAAFYMQSVHLPGKAQTLAVKRKAESEEERDDLSALASVLPTKASPAAESPKVIEEKNSLGEKAEPVASLNANPPNSDLVALAPTPSAPPPTLALVSRQMGDSKPPQAIVKPQILTHIIEGFVIQEGAEPFPVGCSQFLKETKKPLQAGLPTGLNESQPSGPLGGDSPSVELEKKANLLKCEYCGKYAPAEQFRGSKRFCSMTCAKRYNVSCSHQFRLKRKKMKEFQEASYARVRRRGPRRSSSDIARAKIQGKRHRGQEDSSRGSDNSSYDEALSPTSPGPLSVRAGHGERDLGNTITTPSTPELQGINPVFLSSNPSQWSVEEVYEFIASLQGCQEIAEEFRSQEIDGQALLLLKEEHLMSAMNIKLGPALKICAKINVLKET"}}, "key": {"[1]": {"biological_target": "mEGFP-CBX2 (3T3 fibroblasts) (UniProt P30658)", "test": "co-IP"}, "mEGFP-CBX7 (Sf9)": {"biological_target": "mEGFP-CBX7 (Sf9) (UniProt Q8VDS3)", "test": "co-purification on anti-FLAG resin"}, "mEGFP-CBX2 (Sf9)": {"biological_target": "mEGFP-CBX2 (Sf9) (UniProt P30658)", "test": "co-purification on anti-FLAG resin"}, "[2]": {"biological_target": "CBX2 (FLAG-tagged, co-expressed with RING1b) (UniProt P30658)", "test": "co-purification on anti-FLAG resin"}}, "note": "No constants are given. Whether binding was seen depends on the method and setting. For some assays here: Binding seen in cells or lysates may run through a third protein. Some entries that bind do so weakly or less than the wild type."}
{"molecule": "RING1b (endogenous, 3T3 fibroblasts) (from UniProt Q9CQJ4 1-336)", "values": [{"measurement": "binding", "setting": "[1]", "result": "binds"}]}
{"molecule": "RING1b (co-expressed with CBX proteins in Sf9) (from UniProt Q9CQJ4 1-336)", "values": [{"measurement": "binding", "setting": "mEGFP-CBX7 (Sf9)", "result": "binds"}, {"measurement": "binding", "setting": "mEGFP-CBX2 (Sf9)", "result": "binds"}, {"measurement": "binding", "setting": "[2]", "result": "binds"}]}
{"molecule": "B1", "values": [{"measurement": "binding", "setting": "[1]", "result": "binds"}]}
